Read-outs that look alike come from different tables or passages of the source. Results are given in words; binding and its absence hold for the method and conditions named. In cells and extracts the contact can be indirect. Here binding means that the protein was enriched with, or labelled near, the bait; the list need not be complete. For part of these data: No binding means not detected with the bait. For part of these data: Sequences can lack the tags named with a protein. Values belong to the molecule of their own block, whether it stands above or below them.
Key:
Experiment in all cases: affinity purification with mass spectrometry
[1] = target: BRAHMA (BRM)-GFP (Arabidopsis thaliana) (UniProt Q6EVK6)
[2] = target: T1, SWI3C-GFP (Arabidopsis thaliana) (UniProt Q9XI07)
T1 sequence: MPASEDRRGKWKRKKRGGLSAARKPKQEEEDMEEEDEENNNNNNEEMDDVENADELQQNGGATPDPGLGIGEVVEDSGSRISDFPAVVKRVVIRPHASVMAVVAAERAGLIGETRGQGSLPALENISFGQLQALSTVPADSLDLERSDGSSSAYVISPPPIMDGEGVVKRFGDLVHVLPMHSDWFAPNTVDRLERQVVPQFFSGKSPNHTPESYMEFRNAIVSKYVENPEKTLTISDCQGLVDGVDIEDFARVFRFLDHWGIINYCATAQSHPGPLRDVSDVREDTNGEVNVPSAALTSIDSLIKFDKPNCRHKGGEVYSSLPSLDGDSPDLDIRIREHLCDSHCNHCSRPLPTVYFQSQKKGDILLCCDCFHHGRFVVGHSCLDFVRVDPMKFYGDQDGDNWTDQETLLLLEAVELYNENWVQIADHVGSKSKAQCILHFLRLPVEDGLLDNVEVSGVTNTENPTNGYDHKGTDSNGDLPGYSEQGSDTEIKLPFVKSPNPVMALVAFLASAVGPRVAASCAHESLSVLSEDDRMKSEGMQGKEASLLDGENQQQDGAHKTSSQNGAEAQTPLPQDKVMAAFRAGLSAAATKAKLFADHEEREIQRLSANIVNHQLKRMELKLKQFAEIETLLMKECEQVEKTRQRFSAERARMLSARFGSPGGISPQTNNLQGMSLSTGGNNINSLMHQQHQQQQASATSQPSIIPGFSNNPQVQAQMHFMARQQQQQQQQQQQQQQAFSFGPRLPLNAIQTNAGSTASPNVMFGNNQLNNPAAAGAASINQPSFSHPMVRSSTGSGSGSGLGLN

Sequences of proteins named here, by UniProt entry; tags and fusion partners are left off. A change or cut given only in a name is not applied to a line headed by its entry.
UniProt Q6EVK6: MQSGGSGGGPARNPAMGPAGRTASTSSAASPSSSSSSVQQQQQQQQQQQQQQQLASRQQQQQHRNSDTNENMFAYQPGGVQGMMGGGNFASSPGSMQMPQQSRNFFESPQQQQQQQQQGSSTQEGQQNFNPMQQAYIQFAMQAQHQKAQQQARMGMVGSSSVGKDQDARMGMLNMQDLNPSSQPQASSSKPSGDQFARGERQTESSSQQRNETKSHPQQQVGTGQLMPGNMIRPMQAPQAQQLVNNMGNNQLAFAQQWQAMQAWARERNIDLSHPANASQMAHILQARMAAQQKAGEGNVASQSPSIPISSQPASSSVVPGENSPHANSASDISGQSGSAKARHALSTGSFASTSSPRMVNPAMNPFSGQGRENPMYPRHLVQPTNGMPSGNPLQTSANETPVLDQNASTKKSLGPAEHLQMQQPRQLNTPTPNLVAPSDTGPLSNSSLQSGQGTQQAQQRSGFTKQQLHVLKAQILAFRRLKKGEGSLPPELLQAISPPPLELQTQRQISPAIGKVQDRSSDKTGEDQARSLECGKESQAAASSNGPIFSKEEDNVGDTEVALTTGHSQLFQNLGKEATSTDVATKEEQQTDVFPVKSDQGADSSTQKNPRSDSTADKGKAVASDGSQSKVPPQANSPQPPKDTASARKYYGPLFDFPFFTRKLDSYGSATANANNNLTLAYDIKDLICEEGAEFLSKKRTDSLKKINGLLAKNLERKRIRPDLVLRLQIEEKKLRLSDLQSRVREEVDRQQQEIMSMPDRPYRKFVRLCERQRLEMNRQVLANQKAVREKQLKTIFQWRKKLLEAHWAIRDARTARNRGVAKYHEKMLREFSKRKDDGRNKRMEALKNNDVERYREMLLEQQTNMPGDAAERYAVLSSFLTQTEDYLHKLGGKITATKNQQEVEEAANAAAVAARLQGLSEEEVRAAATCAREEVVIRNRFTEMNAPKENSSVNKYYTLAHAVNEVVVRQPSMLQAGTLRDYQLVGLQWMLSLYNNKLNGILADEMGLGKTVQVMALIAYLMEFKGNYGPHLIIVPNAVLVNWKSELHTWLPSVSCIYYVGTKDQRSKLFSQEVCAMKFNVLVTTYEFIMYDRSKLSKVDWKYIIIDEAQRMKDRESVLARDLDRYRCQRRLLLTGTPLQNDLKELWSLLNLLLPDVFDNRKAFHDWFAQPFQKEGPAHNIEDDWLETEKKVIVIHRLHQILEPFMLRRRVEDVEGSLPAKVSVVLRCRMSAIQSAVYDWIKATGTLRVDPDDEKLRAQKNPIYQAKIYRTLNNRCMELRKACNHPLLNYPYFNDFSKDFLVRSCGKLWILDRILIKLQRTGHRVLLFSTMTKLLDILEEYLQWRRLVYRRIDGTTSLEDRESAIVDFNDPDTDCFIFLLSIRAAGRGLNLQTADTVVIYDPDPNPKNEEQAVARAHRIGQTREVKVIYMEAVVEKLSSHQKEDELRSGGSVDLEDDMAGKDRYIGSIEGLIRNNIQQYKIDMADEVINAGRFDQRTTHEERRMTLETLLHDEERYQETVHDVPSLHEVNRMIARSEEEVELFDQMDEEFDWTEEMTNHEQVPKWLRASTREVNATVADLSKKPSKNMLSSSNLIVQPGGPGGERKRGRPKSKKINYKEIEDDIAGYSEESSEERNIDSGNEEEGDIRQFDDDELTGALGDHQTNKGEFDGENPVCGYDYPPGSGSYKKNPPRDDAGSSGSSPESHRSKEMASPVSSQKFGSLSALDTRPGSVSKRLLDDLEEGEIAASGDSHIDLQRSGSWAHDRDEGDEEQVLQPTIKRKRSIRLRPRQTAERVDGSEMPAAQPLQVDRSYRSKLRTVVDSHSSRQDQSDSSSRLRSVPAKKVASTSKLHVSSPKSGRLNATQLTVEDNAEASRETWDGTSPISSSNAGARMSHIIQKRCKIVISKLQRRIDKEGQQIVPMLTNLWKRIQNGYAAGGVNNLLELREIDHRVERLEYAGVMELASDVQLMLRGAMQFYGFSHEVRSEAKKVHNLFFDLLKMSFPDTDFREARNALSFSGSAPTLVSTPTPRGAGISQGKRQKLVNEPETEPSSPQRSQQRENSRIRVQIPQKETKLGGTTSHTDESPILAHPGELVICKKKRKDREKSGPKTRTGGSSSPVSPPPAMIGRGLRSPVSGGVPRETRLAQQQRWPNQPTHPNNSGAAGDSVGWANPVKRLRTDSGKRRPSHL
UniProt Q9FMT4: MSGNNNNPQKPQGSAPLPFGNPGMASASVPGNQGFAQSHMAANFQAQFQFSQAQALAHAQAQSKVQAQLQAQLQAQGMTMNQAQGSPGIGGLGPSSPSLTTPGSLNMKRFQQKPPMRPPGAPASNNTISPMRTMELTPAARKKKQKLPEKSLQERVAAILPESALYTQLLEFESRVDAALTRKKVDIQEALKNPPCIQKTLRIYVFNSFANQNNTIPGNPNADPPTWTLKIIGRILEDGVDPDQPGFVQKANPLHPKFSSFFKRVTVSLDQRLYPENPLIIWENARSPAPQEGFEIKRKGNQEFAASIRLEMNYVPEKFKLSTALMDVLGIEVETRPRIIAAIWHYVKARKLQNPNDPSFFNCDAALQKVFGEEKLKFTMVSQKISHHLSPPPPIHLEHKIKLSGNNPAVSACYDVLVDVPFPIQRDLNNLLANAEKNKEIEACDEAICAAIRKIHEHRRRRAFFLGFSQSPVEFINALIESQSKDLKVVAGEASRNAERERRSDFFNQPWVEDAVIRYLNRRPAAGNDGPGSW
UniProt Q9FLP2: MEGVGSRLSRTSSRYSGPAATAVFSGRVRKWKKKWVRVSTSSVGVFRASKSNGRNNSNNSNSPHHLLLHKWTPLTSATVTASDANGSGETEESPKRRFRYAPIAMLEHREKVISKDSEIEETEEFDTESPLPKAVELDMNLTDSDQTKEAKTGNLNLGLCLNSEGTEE
UniProt F4IX81: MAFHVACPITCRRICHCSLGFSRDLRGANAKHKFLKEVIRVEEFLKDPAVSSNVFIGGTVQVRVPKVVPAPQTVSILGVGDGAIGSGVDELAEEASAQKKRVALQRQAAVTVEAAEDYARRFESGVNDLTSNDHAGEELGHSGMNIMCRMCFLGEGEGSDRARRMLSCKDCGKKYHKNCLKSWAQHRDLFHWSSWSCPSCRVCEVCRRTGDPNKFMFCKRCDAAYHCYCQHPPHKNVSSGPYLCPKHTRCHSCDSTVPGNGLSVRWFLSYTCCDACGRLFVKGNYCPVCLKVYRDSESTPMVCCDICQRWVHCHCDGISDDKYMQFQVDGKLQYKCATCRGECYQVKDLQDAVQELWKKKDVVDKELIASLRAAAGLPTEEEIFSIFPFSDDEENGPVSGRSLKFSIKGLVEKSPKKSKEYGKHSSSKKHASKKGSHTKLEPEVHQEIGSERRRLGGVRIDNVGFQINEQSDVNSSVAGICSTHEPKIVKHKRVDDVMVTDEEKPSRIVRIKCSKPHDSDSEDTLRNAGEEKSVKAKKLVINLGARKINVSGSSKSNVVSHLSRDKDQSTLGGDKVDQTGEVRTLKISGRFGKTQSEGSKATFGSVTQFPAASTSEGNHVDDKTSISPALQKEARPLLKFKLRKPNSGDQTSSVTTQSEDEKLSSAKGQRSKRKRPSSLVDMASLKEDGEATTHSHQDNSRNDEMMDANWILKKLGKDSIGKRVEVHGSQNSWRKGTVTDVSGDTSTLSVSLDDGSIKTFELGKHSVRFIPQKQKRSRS
UniProt Q9LPJ1: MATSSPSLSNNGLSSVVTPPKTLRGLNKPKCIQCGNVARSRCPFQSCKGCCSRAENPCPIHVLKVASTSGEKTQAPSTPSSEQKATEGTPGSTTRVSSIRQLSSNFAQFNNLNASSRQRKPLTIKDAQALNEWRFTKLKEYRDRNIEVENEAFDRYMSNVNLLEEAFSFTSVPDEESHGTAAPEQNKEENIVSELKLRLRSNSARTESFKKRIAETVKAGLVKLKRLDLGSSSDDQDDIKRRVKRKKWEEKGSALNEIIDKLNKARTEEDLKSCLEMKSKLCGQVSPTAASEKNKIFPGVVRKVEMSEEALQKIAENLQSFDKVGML
UniProt Q9C6P8: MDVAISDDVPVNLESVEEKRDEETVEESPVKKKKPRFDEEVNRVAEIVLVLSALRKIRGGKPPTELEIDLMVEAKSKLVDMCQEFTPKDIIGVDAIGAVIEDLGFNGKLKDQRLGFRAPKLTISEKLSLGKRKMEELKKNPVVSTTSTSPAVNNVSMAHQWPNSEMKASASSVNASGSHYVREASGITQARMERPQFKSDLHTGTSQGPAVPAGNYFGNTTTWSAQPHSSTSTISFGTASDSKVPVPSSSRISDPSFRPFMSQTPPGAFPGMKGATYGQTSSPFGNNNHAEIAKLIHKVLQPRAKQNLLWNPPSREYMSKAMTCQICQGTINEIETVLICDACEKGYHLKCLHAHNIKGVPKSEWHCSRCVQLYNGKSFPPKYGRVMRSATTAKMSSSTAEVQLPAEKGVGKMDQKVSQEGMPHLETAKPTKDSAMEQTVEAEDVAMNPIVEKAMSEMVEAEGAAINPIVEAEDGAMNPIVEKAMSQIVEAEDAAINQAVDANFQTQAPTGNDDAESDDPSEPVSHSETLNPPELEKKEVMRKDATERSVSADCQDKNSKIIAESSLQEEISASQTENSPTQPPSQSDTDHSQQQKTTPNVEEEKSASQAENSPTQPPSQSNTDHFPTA
UniProt F4JBZ1: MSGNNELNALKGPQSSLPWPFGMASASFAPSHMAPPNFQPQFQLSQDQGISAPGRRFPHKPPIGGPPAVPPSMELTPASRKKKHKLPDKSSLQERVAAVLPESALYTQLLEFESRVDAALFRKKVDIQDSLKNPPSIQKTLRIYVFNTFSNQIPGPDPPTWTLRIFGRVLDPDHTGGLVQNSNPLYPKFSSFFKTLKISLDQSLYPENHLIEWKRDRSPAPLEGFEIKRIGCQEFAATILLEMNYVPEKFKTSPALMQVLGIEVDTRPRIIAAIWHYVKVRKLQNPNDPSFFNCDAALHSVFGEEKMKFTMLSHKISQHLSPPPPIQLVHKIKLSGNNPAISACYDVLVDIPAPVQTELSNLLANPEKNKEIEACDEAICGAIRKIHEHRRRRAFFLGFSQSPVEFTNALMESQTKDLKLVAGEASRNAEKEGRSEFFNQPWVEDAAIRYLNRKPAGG
UniProt Q9LM88: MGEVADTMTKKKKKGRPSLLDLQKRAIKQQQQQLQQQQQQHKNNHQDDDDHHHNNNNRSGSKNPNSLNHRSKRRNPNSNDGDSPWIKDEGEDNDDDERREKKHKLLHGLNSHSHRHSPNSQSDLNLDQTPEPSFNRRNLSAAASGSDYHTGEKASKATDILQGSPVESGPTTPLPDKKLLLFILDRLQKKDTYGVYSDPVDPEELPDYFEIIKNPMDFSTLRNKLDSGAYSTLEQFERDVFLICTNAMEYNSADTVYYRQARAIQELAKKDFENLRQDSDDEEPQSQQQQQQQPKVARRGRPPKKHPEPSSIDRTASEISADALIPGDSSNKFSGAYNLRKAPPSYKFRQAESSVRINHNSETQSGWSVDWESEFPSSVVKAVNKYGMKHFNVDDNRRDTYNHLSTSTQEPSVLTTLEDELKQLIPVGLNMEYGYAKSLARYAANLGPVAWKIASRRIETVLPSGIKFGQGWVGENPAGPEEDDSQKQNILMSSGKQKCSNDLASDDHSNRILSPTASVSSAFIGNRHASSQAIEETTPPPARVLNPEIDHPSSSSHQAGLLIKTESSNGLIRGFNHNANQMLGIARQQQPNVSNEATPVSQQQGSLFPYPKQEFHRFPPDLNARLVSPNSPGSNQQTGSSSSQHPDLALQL
UniProt Q9LF51: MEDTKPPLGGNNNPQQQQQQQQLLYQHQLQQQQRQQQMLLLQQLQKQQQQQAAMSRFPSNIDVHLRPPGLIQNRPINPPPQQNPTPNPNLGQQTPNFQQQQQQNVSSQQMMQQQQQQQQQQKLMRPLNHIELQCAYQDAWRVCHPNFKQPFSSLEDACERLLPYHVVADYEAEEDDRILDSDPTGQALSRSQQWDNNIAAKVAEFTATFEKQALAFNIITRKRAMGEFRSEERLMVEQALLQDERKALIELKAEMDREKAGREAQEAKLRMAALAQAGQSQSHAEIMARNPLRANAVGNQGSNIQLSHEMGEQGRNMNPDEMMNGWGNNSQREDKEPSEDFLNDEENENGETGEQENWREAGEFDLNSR

[3] = target: T2, MINUSCULE 2 (MINU2)-GFP (Arabidopsis thaliana) (UniProt F4K128)
T2 sequence: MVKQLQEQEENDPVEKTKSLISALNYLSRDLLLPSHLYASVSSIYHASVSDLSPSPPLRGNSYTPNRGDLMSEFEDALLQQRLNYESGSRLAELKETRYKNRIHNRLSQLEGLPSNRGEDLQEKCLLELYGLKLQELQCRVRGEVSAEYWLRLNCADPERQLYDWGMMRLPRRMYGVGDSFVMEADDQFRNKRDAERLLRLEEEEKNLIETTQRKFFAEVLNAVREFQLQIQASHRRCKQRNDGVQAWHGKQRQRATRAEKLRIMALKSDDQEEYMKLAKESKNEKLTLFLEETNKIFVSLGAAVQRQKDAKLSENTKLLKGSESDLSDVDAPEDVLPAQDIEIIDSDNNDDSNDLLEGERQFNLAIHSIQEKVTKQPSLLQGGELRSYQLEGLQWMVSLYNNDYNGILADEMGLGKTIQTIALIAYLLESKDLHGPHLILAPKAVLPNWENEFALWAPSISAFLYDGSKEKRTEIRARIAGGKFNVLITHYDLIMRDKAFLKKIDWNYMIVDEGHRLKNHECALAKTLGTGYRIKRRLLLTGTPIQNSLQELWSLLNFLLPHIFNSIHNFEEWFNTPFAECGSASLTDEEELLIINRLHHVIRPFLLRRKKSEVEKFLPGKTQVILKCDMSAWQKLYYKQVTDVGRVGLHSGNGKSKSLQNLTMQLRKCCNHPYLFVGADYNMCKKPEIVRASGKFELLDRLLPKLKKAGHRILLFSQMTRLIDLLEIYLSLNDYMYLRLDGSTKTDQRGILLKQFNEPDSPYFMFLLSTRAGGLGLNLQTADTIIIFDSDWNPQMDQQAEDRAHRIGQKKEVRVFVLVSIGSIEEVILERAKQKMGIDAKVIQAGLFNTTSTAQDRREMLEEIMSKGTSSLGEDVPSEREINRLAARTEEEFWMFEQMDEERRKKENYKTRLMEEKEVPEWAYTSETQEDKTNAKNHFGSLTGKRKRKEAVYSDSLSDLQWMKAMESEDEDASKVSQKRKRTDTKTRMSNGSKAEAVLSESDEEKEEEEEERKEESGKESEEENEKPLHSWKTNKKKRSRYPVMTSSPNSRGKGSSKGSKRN

[4] = target: T1, SWI3C-GFP (Arabidopsis thaliana); remark: listed apart in the source
[5] = target: T2, MINUSCULE 2 (MINU2)-GFP (Arabidopsis thaliana); remark: listed apart in the source

Molecule: SWI/SNF associated protein 73B (SWP73B) (from UniProt Q9FMT4)
- binding [1]: binds
- binding [2]: binds
- binding [3]: binds

Molecule: BCL7B (from UniProt Q9FLP2)
- binding [1]: binds
- binding [2]: binds
- binding [3]: binds
- binding [4]: binds weakly

Molecule: bromodomain-containing protein BRD13 (from UniProt F4K3B4)
- binding [1]: binds
- binding [2]: binds
- binding [3]: no binding

Molecule: TPF2 (from UniProt F4IX81)
- binding [3]: binds

Molecule: PSA1 (from UniProt Q9LPJ1)
- binding [3]: binds

Molecule: OPF1 (from UniProt Q9C6P8)
- binding [3]: binds

Molecule: BRM-interacting protein 1 (BRIP1) (from UniProt Q9SRQ0)
- binding [1]: binds
- binding [2]: binds
- binding [3]: no binding

Molecule: SWI/SNF associated protein 73A (SWP73A) (from UniProt F4JBZ1)
- binding [1]: binds
- binding [3]: no binding

B1: SWI3D (protein, UniProt Q8VY05 1-985)
chain: MEEKRRDSAGTLAFAGSSGDSPASEPMPAPRRRGGGLKRKANALGGSNFFSSAPSKRMLTREKAMLASFSPVHNGPLTRARQAPSIMPSAADGVKSEVLNVAVGADGEKPKEEEERNKAIREWEALEAKIEADFEAIRSRDSNVHVVPNHCGWFSWEKIHPLEERSLPSFFNGKLEGRTSEVYREIRNWIMGKFHSNPNIQIELKDLTELEVGDSEAKQEVMEFLDYWGLINFHPFPPTDTGSTASDHDDLGDKESLLNSLYRFQVDEACPPLVHKPRFTAQATPSGLFPDPMAADELLKQEGPAVEYHCNSCSADCSRKRYHCPKQADFDLCTECFNSGKFSSDMSSSDFILMEPAEAPGVGSGKWTDQETLLLLEALEIFKENWNEIAEHVATKTKAQCMLHFLQMPIEDAFLDQIDYKDPISKDTTDLAVSKDDNSVLKDAPEEAENKKRVDEDETMKEVPEPEDGNEEKVSQESSKPGDASEETNEMEAEQKTPKLETAIEERCKDEADENIALKALTEAFEDVGHSSTPEASFSFADLGNPVMGLAAFLVRLAGSDVATASARASIKSLHSNSGMLLATRHCYILEDPPDNKKDPTKSKSCSADAEGNDDNSHKDDQPEEKSKKAEEVSLNSDDREMPDTDTGKETQDSVSEEKQPGSRTENSTTKLDAVQEKRSSKPVTTDNSEKPVDIICPSQDKCSGKELQEPLKDGNKLSSENKDASQSTVSQSAADASQPEASRDVEMKDTLQSEKDPEDVVKTVGEKVQLAKEEGANDVLSTPDKSVSQQPIGSASAPENGTAGGNPNIEGKKEKDICEGTKDKYNIEKLKRAAISAISAAAVKAKNLAKQEEDQIRQLSGSLIEKQLHKLEAKLSIFNEAESLTMRVREQLERSRQRLYHERAQIIAARLGVPPSMSSKASLPTNRIAANFANVAQRPPMGMAFPRPPMPRPPGFPVPGSFVAATTMTGSSDPSPGSDNVSSV
- binding [5]: no binding

B4: SHH2 (protein, UniProt Q8RWJ7 1-348)
chain: MGRPPSNGGPAFRFILPEVTEMEAILLQHNTAMPGRHILEALADKFSESPERKGKVVVQFKQIWNWFQNRRYALRARGNKAPGKLNVSSMPRMDLPNQMRSVIQPLSVPKTTHMTGNLPGMTPAPSGSLVPGVMRSGSDNSYLEFEAKSARDGAWYDVQAFLAHRNLEIGDPEVQVRFAGFEVEEDEWINVKKHVRQRSLPCEASECVAVLAGDLVLCFQEGKDQALYFDAIVLDAQRRRHDVRGCRCRFLVRYSHDQSEEIVPLRKICRRPETDYRLQQLHNAVNDLANSNQHQIPALDAAAKTPLSLPGATVPIVAPESKDPSLSATPATLVQPSSNAATVPAGSA
- binding [5]: binds

The remaining lines, values ahead:

- binding [1]: binds
- binding [2]: binds
- binding [3]: no binding
Molecule: bromodomain-containing protein BRD1 (from UniProt Q9LM88)

- binding [3]: binds
Molecule: BRD5

- binding [3]: binds
Molecule: TPF1

- binding [2]: binds
- binding [4]: binds weakly
Molecule: BCL7A

- binding [3]: no binding
Molecule: bromodomain-containing protein BRD2

- binding [1]: binds
- binding [2]: binds
- binding [3]: no binding
Molecule: BRM-interacting protein 2 (BRIP2) (from UniProt Q9LF51)

- binding [5]: binds
B2: OPF2 (protein, UniProt Q5PNS0 1-482)
chain: MHYSQTSSFGGNHTEIAKIIHKFLQPRVKQYPLWNPPSREYMSRAMACQICEVTINEMDTLLICDACEKAYHLKCLQGNNMKGVPKSEWHCSRCVQAFNGKPFPPTYGRATRAVATTTAKMPFRAAGVLSSSAKKIGPMDIKANQQKPIVSTFSRLQNTGLVSGAATTSQFESASVNAKTTASAAKTTNIGSQGSKENVACGANSPAPVSLTETPNRTGIASTISVINNGLISKPLTPVGTMSSTSPLPVVNQLPVNATSNASPSTPITASLVAQAPTVTQNGDGSSTASGTADHSILNADITTQVHTLTVTSSSNSQQAVSHSEVAKATEDAAPLENVSECEKPSESTSHPDSLNDKTISENVQESSKDAKVDSEACQNHPTASPATVVPDQDSTITAAPSVTQEDSAFNTEKTPPQPLSVSSNYDSQTEKETPNVQDSVHNVPGDSEKGKGLNGLDDRHQEQPSEPEFYKSDSVKEENAA

- binding [5]: binds
B3: BUSHY (BSH) (protein, UniProt P93045 1-240)
chain: MKGLVSTGWKGPVKFRMPTAENLVPIRLDIQFEGQRYKDAFTWNPSDPDNEVVIFAKRTVKDLKLPYAFVTQIAQSIQSQLSDFRAYEGQDMYTGEKIIPIKLDLRVNHTLIKDQFLWDLNNFESDPEEFARTLCKDLGVEDPEVGPAVAFAIREQLYEIAIQSVASARESRLSKKGRRGSDHGSASKASGLSMDLMKLFSFKSSVVRKRKDLDVYEPVVDLLTSEEVDALEAREERHAR

Source: doi:10.1101/2022.11.24.517835
